In article PMC9298926:
These are yes or no findings as the source states them, for the method shown. Binding seen in cells or lysates may run through a third protein. Binding calls can cover weak binding; strength is not graded here. Tags and fused reporters may be left off the sequences shown.

Target: SsPE14-YFP (SsPele1-YFP) (Sporisorium scitamineum)
Test: co-IP; transient co-expression in N. benthamiana leaves, 48 h; lysate in 50 mM Tris pH7.5, 150 mM NaCl, 10% glycerol, 2 mM EDTA, 5 mM DTT, 0.1% Triton; IP with GFP-Trap beads 2 h at 4°C; blots with anti-FLAG and anti-GFP

B1: AtPEPR1-FLAG (receptor, UniProt Q9SSL9 29-1123)
chain: LNSDGLTLLSLLKHLDRVPPQVTSTWKINASEATPCNWFGITCDDSKNVASLNFTRSRVSGQLGPEIGELKSLQILDLSTNNFSGTIPSTLGNCTKLATLDLSENGFSDKIPDTLDSLKRLEVLYLYINFLTGELPESLFRIPKLQVLYLDYNNLTGPIPQSIGDAKELVELSMYANQFSGNIPESIGNSSSLQILYLHRNKLVGSLPESLNLLGNLTTLFVGNNSLQGPVRFGSPNCKNLLTLDLSYNEFEGGVPPALGNCSSLDALVIVSGNLSGTIPSSLGMLKNLTILNLSENRLSGSIPAELGNCSSLNLLKLNDNQLVGGIPSALGKLRKLESLELFENRFSGEIPIEIWKSQSLTQLLVYQNNLTGELPVEMTEMKKLKIATLFNNSFYGAIPPGLGVNSSLEEVDFIGNKLTGEIPPNLCHGRKLRILNLGSNLLHGTIPASIGHCKTIRRFILRENNLSGLLPEFSQDHSLSFLDFNSNNFEGPIPGSLGSCKNLSSINLSRNRFTGQIPPQLGNLQNLGYMNLSRNLLEGSLPAQLSNCVSLERFDVGFNSLNGSVPSNFSNWKGLTTLVLSENRFSGGIPQFLPELKKLSTLQIARNAFGGEIPSSIGLIEDLIYDLDLSGNGLTGEIPAKLGDLIKLTRLNISNNNLTGSLSVLKGLTSLLHVDVSNNQFTGPIPDNLEGQLLSEPSSFSGNPNLCIPHSFSASNNSRSALKYCKDQSKSRKSGLSTWQIVLIAVLSSLLVLVVVLALVFICLRRRKGRPEKDAYVFTQEEGPSLLLNKVLAATDNLNEKYTIGRGAHGIVYRASLGSGKVYAVKRLVFASHIRANQSMMREIDTIGKVRHRNLIKLEGFWLRKDDGLMLYRYMPKGSLYDVLHGVSPKENVLDWSARYNVALGVAHGLAYLHYDCHPPIVHRDIKPENILMDSDLEPHIGDFGLARLLDDSTVSTATVTGTTGYIAPENAFKTVRGRESDVYSYGVVLLELVTRKRAVDKSFPESTDIVSWVRSALSSSNNNVEDMVTTIVDPILVDELLDSSLREQVMQVTELALSCTQQDPAMRPTMRDAVKLLEDVKHLARSCSSDSVR
With B1 the binding was “binds”.
